Results from PubChem BioAssay AID488840 (Broad Institute, 2010).
Out of some 1,400 compounds screened, about 45 (3%) were called active.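 How the source made its calls: active means half-maximal dose of signal decrease from fit no higher than ten times the top valid tested dose; inconclusive means fit invalid, or curve flat with 30 to 70% inhibition; inactive means the rest.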 The list shows a part of the results. Measured potencies and affinities stand elsewhere.

Protein sequences, listed by entry. Tags and fused reporters are not part of them. Lines headed by an entry give the natural chain unless they say otherwise; changes in a name come on top.
UniProt O75164: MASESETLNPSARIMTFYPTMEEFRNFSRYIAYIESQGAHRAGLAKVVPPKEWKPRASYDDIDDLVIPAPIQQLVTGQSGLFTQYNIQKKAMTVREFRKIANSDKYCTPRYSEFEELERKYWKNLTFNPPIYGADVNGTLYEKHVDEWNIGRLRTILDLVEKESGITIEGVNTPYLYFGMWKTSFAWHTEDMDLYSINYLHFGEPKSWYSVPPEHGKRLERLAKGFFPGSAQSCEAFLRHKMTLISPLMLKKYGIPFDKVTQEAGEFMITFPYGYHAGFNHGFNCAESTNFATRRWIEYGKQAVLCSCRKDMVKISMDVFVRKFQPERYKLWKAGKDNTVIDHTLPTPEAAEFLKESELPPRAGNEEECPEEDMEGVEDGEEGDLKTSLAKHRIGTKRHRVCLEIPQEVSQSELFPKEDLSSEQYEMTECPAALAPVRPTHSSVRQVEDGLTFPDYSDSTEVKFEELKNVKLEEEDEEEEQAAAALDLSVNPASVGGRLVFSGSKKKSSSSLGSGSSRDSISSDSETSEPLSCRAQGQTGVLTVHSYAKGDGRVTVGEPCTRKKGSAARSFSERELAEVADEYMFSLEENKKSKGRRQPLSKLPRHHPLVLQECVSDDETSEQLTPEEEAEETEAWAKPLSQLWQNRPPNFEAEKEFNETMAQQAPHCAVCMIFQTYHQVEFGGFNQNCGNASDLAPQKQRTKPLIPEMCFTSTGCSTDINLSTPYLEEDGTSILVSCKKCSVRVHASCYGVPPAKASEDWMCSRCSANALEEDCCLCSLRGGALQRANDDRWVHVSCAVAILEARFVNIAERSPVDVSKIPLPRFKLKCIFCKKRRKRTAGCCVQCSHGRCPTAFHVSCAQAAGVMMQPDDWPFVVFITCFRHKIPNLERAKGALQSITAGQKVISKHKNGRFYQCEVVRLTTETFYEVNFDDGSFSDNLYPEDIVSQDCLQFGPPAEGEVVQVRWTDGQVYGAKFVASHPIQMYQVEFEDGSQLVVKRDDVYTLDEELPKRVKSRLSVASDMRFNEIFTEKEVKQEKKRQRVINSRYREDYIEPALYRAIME

target: Lysine-specific demethylase 4A (Homo sapiens) (UniProt O75164); assay: inhibition of JMJD2A H3K9me3 demethylation – biochemical, DELFIA europium, cherry-picked samples, selectivity assay for GASC-1 inhibitor project, dose response (AID 488840); settings: GST-JMJD2A(1-420) H3K9me3 demethylation; at 6 µM (top of the series) unless noted;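 further: europium signal reports the dimethyl H3K9 product detected by antibody so inhibitors lower it; 0% = median of neutral control wells and -100% = median of positive control wells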

Activity change, negative = inhibition, inactive:
CCOc1ccc(-c2nc(CSCC(=O)NC3CCCc4ccccc43)c(C)o2)cc1 (stereo unspecified) -2.21%
COC(=O)CNS(=O)(=O)c1ccc(C)cc1 2.35%
CN(C(=O)c1ccccn1)c1nnc(-c2ccccn2)s1 -3.27%
O=C(/C=C/c1cc([N+](=O)[O-])ccc1OC(F)F)Nc1ccc(OC(F)F)cc1 1.27%
COC(=O)C1=C(C(=O)OC)SC(=C2C(=S)C(C)(C)N(C(=O)C(C)C)c3ccccc32)S1 -2.33%
CCOC(=O)c1c(C)n(C)c2ccc(O)c(S(=O)(=O)c3ccccc3)c12 -4.8%
CCc1ccc(-c2cc(C)no2)cc1S(=O)(=O)NCCc1ccc(OC)c(OC)c1 -4.55%
Cn1c(=O)c2c(ncn2CCN(CCO)Cc2ccccc2)n(C)c1=O -4.48%
Fc1ccccc1OCCCCn1cncn1 -0.332%
CCCCC1CCC(C(=O)N(CC(C)C)c2c(N)n(Cc3ccccc3)c(=O)[nH]c2=O)CC1 (stereo unspecified) 3.81%
N#CC(C(=O)NCCc1ccccc1)c1nc2ccccc2nc1N1CCOCC1 (stereo unspecified) 2.1%
CS(=O)(=O)NC1c2cccc3cccc(c23)C1Sc1nncn1/N=C/c1ccco1 (stereo unspecified) -5.02%
Cc1ccc(CNC(=O)Cc2ccc(-c3ccccc3)cc2)cc1 6.79%
Cn1c2ccccc2c(=O)c2ccc(NCCc3cccs3)cc21 3.45%
CC1CCN(C(=O)CSc2nnc(CNC(=O)c3c(F)cccc3F)o2)CC1 8.76%
CCn1c(=O)c(C(=O)CN2c3ccccc3CC2C)c(N)n(Cc2ccccc2)c1=O (stereo unspecified) 2.08%
COc1cccc(C(c2nnnn2CCc2ccccc2)N2CCN(c3ccccc3)CC2)c1OC (stereo unspecified) 1.91%
CCOC(=O)Cc1csc(NC(=O)COc2cccc(C)c2)n1 -2.61%
Cc1cnn(C(=O)c2ccccc2Br)c1 -7.68%
CS(=O)(=O)N(CCc1ccccc1)CC(=O)NCC1CCCO1 (stereo unspecified) 3.91%
Cn1c(=O)n(C)c2cc(S(=O)(=O)N3CCOCC3)ccc21 -4.32%
O=C(NCCCN1CCCC1=O)c1cc(-c2cccnc2)nc2ccc(Cl)cc12 -1.88%
Cc1ccccc1CN1C(=O)C(O)(CC(=O)c2ccncc2)c2ccccc21 (stereo unspecified) -4.55%
CCOC(=O)c1c(C)[nH]c(C(=O)CN2CCOCC2)c1C -0.147%
CC(OC(=O)c1ccc([N+](=O)[O-])s1)C(=O)Nc1ncc(Cl)cc1Cl (stereo unspecified) 0.116%
O=C(Nc1ccc(Cl)cc1)N1CCN(c2ccccc2)CC1 6.39%
COc1ccc(CCN2C(=O)CC(NNC(=O)c3ccccc3Br)C2=O)cc1 (stereo unspecified) 5.48%
CNC[C@H]1Oc2c(NS(=O)(=O)c3cccs3)cccc2C(=O)N([C@H](C)CO)C[C@@H]1C -0.699%
C=CCn1c(N2CCCCCC2)nc2c1c(=O)[nH]c(=O)n2C -2.83%
CN(C)CCCN1C(=O)C(=O)/C(=C(/O)c2ccncc2)C1c1ccccc1 (stereo unspecified) -6.22%
O=[N+]([O-])c1cc(/C=N/Nc2nc3ccccc3[nH]2)c(O)cc1O -3.66%
COCCn1nnnc1C(C(C)C)N1CCCC(C)C1 (stereo unspecified) 12.8%
COC(=O)NNC(=S)Nc1cc(OC)ccc1OC 3.22%
CC(C)(C)c1ccc(C(=O)NNC(=O)c2cccc(Br)c2)cc1 -1.86%
Cc1cc(C)n2nc(C(=O)N3CCCC(Nc4ccc(F)c(F)c4)C3)cc2n1 (stereo unspecified) -1.01%
C[C@@]12C(=O)Nc3ccc(Br)cc3C(=O)N1[C@H]1c3ccccc3OC[C@@H]1[C@@H]2c1ccccc1 0.334%
Cc1occc1-c1nnc(SCC(=O)Nc2ccccc2)n1C(C)c1ccccc1 (stereo unspecified) 4.91%
C#CCOCCOCCOCCNc1nc(N2CCN(C(=O)[C@H](CCCCN)n3cc([C@@H](N)[C@H](C)CC)nn3)CC2)nc(N2CCN(C(=O)[C@H](CCC(=O)O)n3cc([C@@H](N)CCSC)nn3)CC2)n1 1.28%
CCOC(=O)N1CCc2c(sc3nc4n(c(=O)c23)N=C(C)CS4)C1 1.41%
CCS(=O)(=O)N1CCCC(C(=O)NCCCN2CCCC2=O)C1 (stereo unspecified) -3.83%
CC(=O)N1CCN(c2ccc(NC(=O)c3ccc4ccccc4c3)cc2)CC1 -2.97%
CC(=O)Nc1n[nH]c(-c2ccc(C)cc2)c1C -3.56%
C[C@@H]1CN([C@H](C)CO)C(=O)c2cccc(NC(=O)c3ccncc3)c2O[C@@H]1CN(C)Cc1ccc(C(=O)O)cc1 -6.22%
Cn1c(CNC(=O)c2ccccc2F)nnc1SCC(=O)Nc1nnc(C2CC2)s1 7.99%
CCCCN(CC)S(=O)(=O)c1ccc(C(=O)Nc2nnc(COC)o2)cc1 -1.78%
Cc1cc(N(C)C)cc(C)[n+]1[O-] -3.46%
Cc1ccc(NC(=O)c2ccc(OC(=O)CCN3C(=O)c4ccccc4C3=O)cc2)cc1 -8.02%
COC(=O)[C@]1(C)N[C@H](CN(C)C(=O)Nc2ccc(C)cc2)[C@@H]2C(=O)N(Cc3ccccc3)C(=O)[C@@H]21 0.249%
Cc1oc(C(C)(C)C)cc1C(=O)N1CCN(c2ncccc2C(F)(F)F)CC1 -11.5%
O=C(O)c1ccc(/C=N/Nc2cccc(C(F)(F)F)c2)cc1 -2.27%
Cn1c(SCC(=O)Nc2cc(S(=O)(=O)N3CCOCC3)ccc2N2CCOCC2)nnc1-c1ccncc1 -2.3%
C[C@@H]1CC[C@]2(C(=O)O[C@@H]3O[C@H](CO)[C@@H](O)[C@H](O)[C@H]3O)CC[C@]3(C)C(=CCC4[C@@]5(C)C[C@@H](O)[C@H](O)[C@@](C)(C(=O)O[C@@H]6[C@H](O)C[C@@]7(C)C(CC[C@]8(C)C7CC=C7[C@H]9[C@](C(=O)O[C@@H]%10O[C@H](CO)[C@@H](O)[C@H](O)[C@H]%10O)(CC[C@@H](C)[C@@]9(C)O)CC[C@]78C)[C@@]6(CO)C(=O)O)C5CC[C@]43C)[C@@H]2[C@]1(C)O (stereo partly specified) -1.66%
O=C(NCc1cccc(F)c1)C1CCN(S(=O)(=O)Cc2ccccc2)CC1 -0.0856%
Cn1cccc1-c1nc2ccc(NC(=O)c3cccs3)cc2[nH]1 0.536%
C[C@H](CO)N1C[C@H](C)[C@@H](CN(C)C(=O)NC2CCCCC2)Oc2c(NC(=O)c3ccncc3)cccc2C1=O -3.17%
Cn1c2ccccc2c2c(C(=O)N3CCN(c4ccccn4)CC3)cn(C3CCCC3)c(=O)c21 4.26%
Cc1cccc2c1-c1sc(C(=O)Nc3cccc([N+](=O)[O-])c3C)cc1CO2 -0.619%
Cc1ccc(C(=O)NCCCCNC(=O)c2ccc(C)o2)o1 -5.72%
O=C(c1cccc(-n2cccc2)c1)N1CCN(S(=O)(=O)c2c(F)cccc2F)CC1 5.19%
COc1ccc(NC(=O)Nc2c[nH]c(=O)[nH]c2=O)cc1OC -16.7%
CC(=O)N=c1sccn1CC(=O)c1ccc([N+](=O)[O-])cc1 -13.9%
CCOC(=O)C1CCN(S(=O)(=O)c2cccc(-c3cn4cc(Cl)ccc4n3)c2)CC1 0.705%
Cn1c(=O)[nH]c(=O)c2c1nc(N1CCc3ccccc3C1)n2CCSc1nc2ccccc2s1 -0.272%
C=CCOc1ccc(C(=O)NC2CCCCC2)cc1 -3.43%
C[C@H](CO)N1C[C@H](C)[C@@H](CN(C)Cc2ccncc2)Oc2c(NC(=O)Cc3ccccc3)cccc2C1=O 5.08%
CC#CCOC(=O)c1c(C)nc2sc3c(c2c1N)CCC(O)C3 (stereo unspecified) -2.42%
C[C@@]12C(=O)Nc3cc(F)c(F)cc3C(=O)N1[C@H]1c3cc(Cl)ccc3OC[C@@H]1[C@@H]2c1ccccc1 -3.04%
CCCCn1c(=O)[nH]c(=O)c2c1nc(-c1cc(Cl)c(OC)c(OC)c1)n2C 1.79%
CCC(CC)NC(=O)CSc1nnc(-c2ccc(OC)cc2)n1C(C)C -3.51%
CC(=O)N(C)C1=C(N2CCOCC2)C(=O)c2ccccc2C1=O -1.83%
Cn1c(=O)c2c(nc(NC3CCCCC3)n2Cc2ccccc2)n(C)c1=O -1.32%
COc1ccc(CC(=O)Nc2ccc(/C(C)=N/NC(=O)c3cccc([N+](=O)[O-])c3)cc2)cc1 3.57%
COc1cccc(/C=N/NC(=O)CNC(=O)c2cccs2)c1O -0.374%
O=[N+]([O-])c1ccccc1S(=O)(=O)N1CCN(Cc2ccc3c(c2)OCO3)CC1 -0.819%
O=C(Cc1sc(-c2ccccc2)nc1-c1ccccc1)Nc1ccccc1 4.26%
O=C(CSc1nnc(CNC(=O)c2cccs2)o1)c1ccccc1 2.01%
CCOc1cccc(C2C(C(=O)c3ccco3)=C(O)C(=O)N2Cc2ccncc2)c1 (stereo unspecified) -0.0442%
CSc1nc(N2CCN(C)CC2)c2c(c1C#N)CC(C)(C)OC2 -1.64%
Cc1ccc(NC2=NCC(=O)N2Cc2ccc3c(c2)OCO3)c(C)c1 -1.15%
CC[C@@H]1CCCCc2ccccc2[C@@H](C(=O)C[C@@H](O)CC(C)=O)OC1=O -1.15%
Fc1ccc(-c2csc(Nc3ccccn3)n2)cc1 -5.34%
